Screen size: about 2,400 compounds; about 20 (0.8%) were called active.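 The calls were made as follows: active = AC50 no more than ten times the highest tested concentration, or full inhibition at every dose giving a flat fit (cut at about 30 µM in these data); inconclusive = flat fit with activity between 30% and 70%, or poor-quality invalid fit; inactive = AC50 more than ten times the top tested dose.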 The list shows a part of the results.

The nature of the assay: inhibitors of ADP-Glo detection reagents, dose response, artefact control for GSK-3a inhibitor project, biochemical, luminescence, cell-free, homogeneous (AID 463205).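 Also: kinase-free counter-screen against the ADP-Glo detection reagents only; potency is for inhibitors that reduce the luminescence signal.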 The settings on record: 5 uM ADP. (ADP-Glo turns the ADP formed in a reaction into a luminescent signal.)
For `COc1ccc(-c2cc(=O)c3ccccc3o2)cc1`, the AC50 is inactive: > 30 µM. Next, `Cc1cc2oc(C(=O)NCCc3ccc(S(N)(=O)=O)cc3)c(C)c2cc1C`: inactive: > 30 µM. The figure for `COC(=O)c1cc2cc(Cl)ccc2nc1SC` is inactive: > 30 µM; for `CC(=O)c1cccc(NC(=S)NC(=O)CC(C)C)c1` it is inactive: > 30 µM.

Turning to `Cc1cccc(-c2nnc(SCc3nc4ccccc4[nH]3)n2Cc2ccco2)c1`, the AC50 was inactive: > 30 µM.

For the molecule `CC1(C)CC(=O)C(C=Nc2ccc(O)cc2)=C(O)C1`, the AC50 was inactive: > 30 µM. As to `CC(C)OC(=O)/C(C#N)=C/c1c[nH]c2ccccc12`, the AC50 was inactive: > 30 µM.

For `COc1ccc2[nH]c(C)c(CN3CCCCC3)c(=O)c2c1`, the AC50 is inactive: > 30 µM. The figure for `COC(=O)c1cnn(C(=O)c2ccccc2Br)c1N` is inactive: > 30 µM. Next, `CC1=Nn2c(nc3sc4c(c3c2=O)CCCC4)SC1`: inactive: > 30 µM; `COc1ccc(COC(=O)C2=C(C)NC(=O)NC2c2ccccc2F)cc1` (stereo not given): inactive: > 30 µM. Next, `COc1cccc(Nc2nc(-c3ccc(O)cc3)cs2)c1`: inactive: > 30 µM; `Clc1ccc(Nc2ncnc3ccc(Br)cc23)cc1`: inactive: > 30 µM. For `Fc1cccc(Nc2nc(-c3ccncc3)nc3ccccc23)c1`, the AC50 was inactive: > 30 µM. The figure for `Cn1cc(C2=C(c3ccc(Cl)cc3Cl)C(=O)NC2=O)c2ccccc21` is inactive: > 30 µM; for `Cn1c(SCC(=O)N/N=C/C=C/c2ccco2)nc2ccccc21` it is inactive: > 30 µM; for `O=C(COc1ccccc1Cl)Nc1ccc(Cl)cn1` it is inactive: > 30 µM. Next, `O=[N+]([O-])c1ccccc1/C=N/n1c(-c2cccnc2)n[nH]c1=S`: inactive: > 30 µM; `Cc1ccc(S(=O)(=O)c2c(C(=O)c3ccccc3)cnc3cc4c(cc23)OCCO4)cc1`: inactive: > 30 µM. Next, `Cc1ccc(OCC(=O)Nc2ccc3c(c2)C(=O)NC3=O)cc1`: inactive: > 30 µM; `CCOC(=O)N1CCc2c(sc3nc(SC(C)C)n(N)c(=O)c23)C1`: inactive: > 30 µM. Take `N#CC1=C2SCN(Cc3ccco3)CN2C(=O)CC1c1ccc(Cl)cc1` (stereo not given): the AC50 was inactive: > 30 µM. Next, `Cc1ccc(S(=O)(=O)Nc2cccc3cccnc23)cc1`: inactive: > 30 µM. The figure for `O=C(Cn1c(NCCO)nc2ccccc21)NCC1CCCO1` (stereo not given) is inactive: > 30 µM. Regarding `CN1CCCN(C(=O)CC(c2ccccc2)c2ccccc2)CC1`, the AC50 was inactive: > 30 µM. With `Cc1cc(C)c(/C=N/NC(=O)c2nnn(-c3nonc3N)c2CN2CCC(C)CC2)c(C)c1`, the AC50 is inactive: > 30 µM. With `COc1cccc(NC(=O)Nc2cc(Cl)ccc2C)c1`, the AC50 was inactive: > 30 µM. The figure for `CCn1c(SCC(=O)N/N=C/C=C\c2ccco2)nc2ccccc21` is inactive: > 30 µM. For `CCOC(=O)CC(C#N)c1c[nH]c2ccccc12` (stereo not given), the AC50 was inactive: > 30 µM. Next, `COc1ccc(C2c3sc(=O)[nH]c3SC3C4CCC(C4)C23)cc1OC` (stereo not given): inactive: > 30 µM; `NC(=O)c1nnn(-c2ccccc2)c1N`: inactive: > 30 µM. The figure for `Oc1ccc(/C=N/NC(=S)N/N=C/c2ccc(O)cc2)cc1` is inactive: > 30 µM; for `O=C1Nc2ccccc2/C1=C/c1cnc(-c2ccccc2)[nH]1` it is inactive: > 30 µM. The figure for `O=C(Nc1ccsc1C(=O)NC1CCCCC1)c1ccc(F)cc1` is inactive: > 30 µM. Turning to `O=[N+]([O-])c1cc(S(=O)(=O)c2ccc(N3CCCCC3)c([N+](=O)[O-])c2)ccc1N1CCCCC1`, the AC50 is inactive: > 30 µM. The figure for `Cc1cc(NC(=O)CSc2nc3ccccc3c(=O)n2CCCC(=O)NCc2ccco2)n[nH]1` is inactive: > 30 µM; for `Cc1ccc2nc(-c3cccc(N)c3)[nH]c2c1` it is inactive: > 30 µM. The figure for `O=C(NCCc1csc(-c2cccnc2)n1)c1ccc(Br)o1` is inactive: > 30 µM; for `CCOC(=O)Nc1nc(C)c(C(=O)c2ccc(Cl)cc2)s1` it is inactive: > 30 µM. Next, `CN1/C(=C\C=C(/C#N)C(=O)Nc2ccccc2F)C(C)(C)c2ccccc21`: inactive: > 30 µM; `COc1c(OC)c(O)c2c(=O)c(O)c(-c3ccccc3)oc2c1OC`: inactive: > 30 µM; `Cc1ccc(-c2nnc(CSc3nnc(C)s3)o2)cc1`: inactive: > 30 µM. Regarding `CCN(CC)CCCNc1nc(N)c([N+](=O)[O-])c(N2CCCCCC2)n1`, the AC50 is inactive: > 30 µM.

For the molecule `C/C(=N\NC(=O)c1nnn(-c2nonc2N)c1-c1cccs1)c1ccc(O)cc1`, the AC50 was inactive: > 30 µM.

For `CN1CCc2cccc3c2C1Cc1ccc(O)c(O)c1-3` (stereo not given), the AC50 is inactive: > 30 µM.

For the molecule `Cc1nc2ncnn2c(C)c1Cc1cccc(F)c1`, the AC50 was inactive: > 30 µM. Regarding `Fc1ccc(Nc2ncnc3sccc23)cc1`, the AC50 was inactive: > 30 µM.

For `CCOc1ccc(C(=O)c2cnc3ccccc3c2N2CCN(CC)CC2)cc1`, the AC50 is inactive: > 30 µM.

Turning to `CCN1CCN(c2nc(N(C)c3ccccc3)nc(N)c2[N+](=O)[O-])CC1`, the AC50 is inactive: > 30 µM. Next, `CCOc1cc(/C=C2\N=C3CCCCCN3C2=O)ccc1O`: inactive: > 30 µM. The figure for `Cc1[nH]nc2c1C(c1ccsc1)C1=C(CC(C)(C)CC1=O)N2` (stereo not given) is inactive: > 30 µM. Next, `Cc1cc(O)c(Oc2cc(C)cc(O)c2O)c(O)c1`: inactive: > 30 µM.

As for `O=[N+]([O-])c1ccc(Nc2nc(Cl)nc(NCCO)n2)cc1`, the AC50 is inactive: > 30 µM. For `CC(C)c1cc(C(N)=O)c(NC(=O)C2CCC2)s1`, the AC50 was inactive: > 30 µM. The figure for `O=C(Nc1cccc(C(=O)NC2CCCCC2)c1)c1ccccc1` is inactive: > 30 µM; for `O=[N+]([O-])c1ccc(N/N=C/c2cn(Cc3ccc(F)cc3)c3ccccc23)nc1` it is inactive: > 30 µM; for `CC1=[N+](C)c2ccc3ccccc3c2C1(C)C` it is inactive: > 30 µM.

In the case of `COc1cc(/C=C/c2cc[n+](C)cc2)ccc1OCC(=O)Nc1ccc(Cl)c(Cl)c1`, the AC50 was inactive: > 30 µM. Next, `Cc1cc2[nH]c(=S)[nH]c2cc1C`: inactive: > 30 µM; `O=C1NC(=Nc2ccccc2Cl)S/C1=C\c1cccc([N+](=O)[O-])c1O`: inactive: > 30 µM. Consider `Cc1ccc(C)c(Sc2ccc(NC(=O)CCl)cc2)c1`, for which the AC50 is inactive: > 30 µM. Next, `COCCNc1nc(N)c([N+](=O)[O-])c(NCc2ccccc2)n1`: inactive: > 30 µM; `CC(=O)Nc1n[nH]c(-c2ccc(C)cc2)c1C`: inactive: > 30 µM. Next, `O=C(CNCC1CCCO1)Nc1ccc([N+](=O)[O-])cc1C(=O)Nc1ccccc1F` (stereo not given): inactive: > 30 µM; `O=C1c2cccc(O)c2C(=O)c2c(O)cc(CO)cc21`: inactive: > 30 µM; `CCOC(=O)N1CCC(N2CCN(S(=O)(=O)c3ccc4ccccc4c3)CC2)CC1`: inactive: > 30 µM.

`CCOC(=O)N1CCc2c(sc3nc4n(c(=O)c23)N=C(C)CS4)C1`: the AC50 is inactive: > 30 µM.

Regarding `CC1(C)Cc2cccc(C(=O)Nc3ccc(Cl)cc3)c2O1`, the AC50 is inactive: > 30 µM. The figure for `CC1=C(C(=O)OCc2ccccc2)C(c2cccc(F)c2)NC(=O)N1` (stereo not given) is inactive: > 30 µM; for `N#CC(C#N)=C1CCc2ccccc2N1` it is inactive: > 30 µM; for `COc1ccc(N=Cc2c(O)[nH]c3ccccc23)cc1` it is inactive: > 30 µM. The figure for `C/C(=N\NC(=O)c1ccccc1NC(=O)c1ccc(Cl)cc1)c1ccncc1` is inactive: > 30 µM. Next, `COc1ccc(C2CC(=O)N3CN(c4ccccc4F)CSC3=C2C#N)cc1OC` (stereo not given): inactive: > 30 µM. On to `O=C1OCCC1Sc1nnc(-c2ccc3c(c2)OCO3)o1` (stereo not given), for which the AC50 was inactive: > 30 µM. Next, `CC(C)NC(=S)Nc1ccc2cn[nH]c2c1`: inactive: > 30 µM. Turning to `CCOc1ccccc1NC(=O)Nc1ccc(Cl)cc1`, the AC50 is inactive: > 30 µM. Next, `Cc1ccc(Sc2nc(-c3ccccc3)nnc2C(F)(F)F)cc1`: inactive: > 30 µM. Next, `S=C(NCCc1ccccc1)Nc1cccc2cnccc12`: inactive: > 30 µM; `O=C(NCCN1CCN(Cc2ccccc2)CC1)Nc1cc(Cl)cc(Cl)c1`: inactive: > 30 µM. Next, `COc1cc(/C=N\NC(=O)c2ccc(-c3ccccc3)cc2)cc(Br)c1O`: inactive: > 30 µM; `Cc1cccc(N(CC(O)CN2CCCC2)S(=O)(=O)c2ccccc2)c1` (stereo not given): inactive: > 30 µM; `COCCNC(=O)c1ccc(Cn2c(=S)[nH]c3cc4c(cc3c2=O)OCO4)cc1`: inactive: > 30 µM. In the case of `CCC(=N\NC(=O)COc1ccccc1OC)/C(CC)=N/NC(=O)COc1ccccc1OC`, the AC50 was inactive: > 30 µM.

Take `Cc1ccc2nc(-c3ccccn3)[nH]c2c1`: the AC50 is inactive: > 30 µM. Next, `C[C@@H]1O[C@@H](Oc2c(-c3ccc(O)c(O)c3)oc3cc(O)cc(O)c3c2=O)[C@H](O)[C@H](O)[C@H]1O`: inactive: > 30 µM; `CCCNC(=O)NC(C(=O)OC)C12CC3CC(CC(C3)C1)C2` (stereo not given): inactive: > 30 µM; `CCc1cc2c3c(c(=O)oc2cc1O)CCCC3`: inactive: > 30 µM. With `Nc1ccc2nc(C3CCCCC3)[nH]c2c1`, the AC50 was inactive: > 30 µM.

In the case of `N#CC1=C2SCN(Cc3ccco3)CN2C(=O)CC1c1ccccc1F` (stereo not given), the AC50 is inactive: > 30 µM.

As to `Cc1nn(CCOc2ccccc2)c(=O)n1-c1ccccc1F`, the AC50 was inactive: > 30 µM.

On to `Cc1ccc2nc(-c3ccccc3N)[nH]c2c1`, for which the AC50 is inactive: > 30 µM. The figure for `Cc1ccc2c(c1)COc1c3ccc(C(=O)N4CCOCC4)cc3nn1-2` is inactive: > 30 µM; for `CC1=C(C(=O)Nc2cccc(F)c2)C(c2ccsc2)C2=C(CC(C)(C)CC2=O)N1` (stereo not given) it is inactive: > 30 µM.

With `Cc1sc2ncnc(N3CCC(C(=O)Nc4ccc(C#N)cc4)CC3)c2c1C`, the AC50 is inactive: > 30 µM. On to `Cc1cnc(NC(=O)C2CC(=O)N(c3ccc4c(c3)OCCO4)C2)s1` (stereo not given), for which the AC50 was inactive: > 30 µM.

In general, AC50 refers to the concentration at which the activity in the assay is half-maximal.
